Test results taken from PMC10645587.

Target: Flag-tagged EGFR deletion mutant with the amino terminus (receptor region) deleted
Assay: co-IP; A549 cells transfected with Flag-EGFR or LAMC2-His vectors (against the endogenous partner), A549 and HEK-293T cells co-transfected with both; lysates (150 mM NaCl, 1% NP-40, 50 mM Tris-HCl pH 8.0, protease inhibitor); primary antibody on Dynal magnetic beads overnight at 4 °C, five washes with PBS, western blot

| Binder | binding |
| --- | --- |
| Laminin-5γ-2 (LAMC2), endogenous (protein, UniProt Q13753 22-1193) TSRREVCDCNGKSRQCIFDRELHRQTGNGFRCLNCNDNTDGIHCEKCKNGFYRHRERDRCLPCNCNSKGSLSARCDNSGRCSCKPGVTGARCDRCLPGFHMLTDAGCTQDQRLLDSKCDCDPAGIAGPCDAGRCVCKPAVTGERCDRCRSGYYNLDGGNPEGCTQCFCYGHSASCRSSAEYSVHKITSTFHQDVDGWKAVQRNGSPAKLQWSQRHQDVFSSAQRLDPVYFVAPAKFLGNQQVSYGQSLSFDYRVDRGGRHPSAHDVILEGAGLRITAPLMPLGKTLPCGLTKTYTFRLNEHPSNNWSPQLSYFEYRRLLRNLTALRIRATYGEYSTGYIDNVTLISARPVSGAPAPWVEQCICPVGYKGQFCQDCASGYKRDSARLGPFGTCIPCNCQGGGACDPDTGDCYSGDENPDIECADCPIGFYNDPHDPRSCKPCPCHNGFSCSVMPETEEVVCNNCPPGVTGARCELCADGYFGDPFGEHGPVRPCQPCQCNNNVDPSASGNCDRLTGRCLKCIHNTAGIYCDQCKAGYFGDPLAPNPADKCRACNCNPMGSEPVGCRSDGTCVCKPGFGGPNCEHGAFSCPACYNQVKIQMDQFMQQLQRMEALISKAQGGDGVVPDTELEGRMQQAEQALQDILRDAQISEGASRSLGLQLAKVRSQENSYQSRLDDLKMTVERVRALGSQYQNRVRDTHRLITQMQLSLAESEASLGNTNIPASDHYVGPNGFKSLAQEATRLAESHVESASNMEQLTRETEDYSKQALSLVRKALHEGVGSGSGSPDGAVVQGLVEKLEKTKSLAQQLTREATQAEIEADRSYQHSLRLLDSVSRLQGVSDQSFQVEEAKRIKQKADSLSSLVTRHMDEFKRTQKNLGNWKEEAQQLLQNGKSGREKSDQLLSRANLAKSRAQEALSMGNATFYEVESILKNLREFDLQVDNRKAEAEEAMKRLSYISQKVSDASDKTQQAERALGSAAADAQRAKNGAGEALEISSEIEQEIGSLNLEANVTADGALAMEKGLASLKSEMREVEGELERKELEFDTNMDAVQMVITEAQKVDTRAKNAGVTIQDTLNTLDGLLHLMDQPLSVDEEGLVLLEQKLSRAKTQINSQLRPMMSELEERARQQRGHLHLLETSIDGILADVKNLENIRDNLPPGCYNTQALEQQ | no binding |
| His-tagged LAMC2 (WT) (protein, UniProt Q13753 22-1193) TSRREVCDCNGKSRQCIFDRELHRQTGNGFRCLNCNDNTDGIHCEKCKNGFYRHRERDRCLPCNCNSKGSLSARCDNSGRCSCKPGVTGARCDRCLPGFHMLTDAGCTQDQRLLDSKCDCDPAGIAGPCDAGRCVCKPAVTGERCDRCRSGYYNLDGGNPEGCTQCFCYGHSASCRSSAEYSVHKITSTFHQDVDGWKAVQRNGSPAKLQWSQRHQDVFSSAQRLDPVYFVAPAKFLGNQQVSYGQSLSFDYRVDRGGRHPSAHDVILEGAGLRITAPLMPLGKTLPCGLTKTYTFRLNEHPSNNWSPQLSYFEYRRLLRNLTALRIRATYGEYSTGYIDNVTLISARPVSGAPAPWVEQCICPVGYKGQFCQDCASGYKRDSARLGPFGTCIPCNCQGGGACDPDTGDCYSGDENPDIECADCPIGFYNDPHDPRSCKPCPCHNGFSCSVMPETEEVVCNNCPPGVTGARCELCADGYFGDPFGEHGPVRPCQPCQCNNNVDPSASGNCDRLTGRCLKCIHNTAGIYCDQCKAGYFGDPLAPNPADKCRACNCNPMGSEPVGCRSDGTCVCKPGFGGPNCEHGAFSCPACYNQVKIQMDQFMQQLQRMEALISKAQGGDGVVPDTELEGRMQQAEQALQDILRDAQISEGASRSLGLQLAKVRSQENSYQSRLDDLKMTVERVRALGSQYQNRVRDTHRLITQMQLSLAESEASLGNTNIPASDHYVGPNGFKSLAQEATRLAESHVESASNMEQLTRETEDYSKQALSLVRKALHEGVGSGSGSPDGAVVQGLVEKLEKTKSLAQQLTREATQAEIEADRSYQHSLRLLDSVSRLQGVSDQSFQVEEAKRIKQKADSLSSLVTRHMDEFKRTQKNLGNWKEEAQQLLQNGKSGREKSDQLLSRANLAKSRAQEALSMGNATFYEVESILKNLREFDLQVDNRKAEAEEAMKRLSYISQKVSDASDKTQQAERALGSAAADAQRAKNGAGEALEISSEIEQEIGSLNLEANVTADGALAMEKGLASLKSEMREVEGELERKELEFDTNMDAVQMVITEAQKVDTRAKNAGVTIQDTLNTLDGLLHLMDQPLSVDEEGLVLLEQKLSRAKTQINSQLRPMMSELEERARQQRGHLHLLETSIDGILADVKNLENIRDNLPPGCYNTQALEQQ | no binding |

These are yes or no findings as the source states them, for the method shown. In cells and extracts the contact can be indirect. Where a sequence is shown, tags or fusion partners need not be part of it.
